Test results reported in publication PMC9646721, “Alkaloid binding to opium poppy major latex proteins triggers structural modification and functional aggregation” (Nature Communications, 2022).

Legend:
PR10-12 = test: ANS displacement assay; type: binding, Papaver somniferum; details: ANS displacement dose-response fit
Text: (§1) Eluates were store separately on ice.
(§2) Displacement of ANS is associated with reduced fluorescence.

PR10-4 = test: ANS displacement assay; type: binding, Papaver somniferum; details: ANS displacement dose-response fit
Text: as §1, §2

MLP2 = test: ANS displacement assay; type: binding, Papaver somniferum; details: ANS displacement dose-response fit
Text: as §1, §2

[1] = Sucrose density-gradient fractionation of latex, relative abundance of BIAs in gradient fractions; set-up: species or system Papaver somniferum; details: Cultivar Roxanne

Compound: COc1ccc2c(c1OC)C(=O)O[C@@H]2[C@H]1c2c(cc3c(c2OC)OCO3)CCN1C [Noscapine, noscapine]
- Hill Slope (PR10-12): -0.65 ± 0.16
- Hill Slope (PR10-4): -0.47 ± 0.17

Compound: COc1ccc(Cc2nccc3cc(OC)c(OC)cc23)cc1OC [Papaverine, papaverine]
- Hill Slope (MLP2): -0.87 ± 0.12
- Hill Slope (PR10-12): -1.70 ± 0.50
- Hill Slope (PR10-4): -1.32 ± 0.20
- Alkaloid concentration in sucrose density-gradient fraction ([1]; fraction 1): 1.968 mM
- Alkaloid concentration in sucrose density-gradient fraction ([1]; fraction 2): 0.713 mM
- Alkaloid concentration in sucrose density-gradient fraction ([1]; fraction 3): 0.164 mM
- Alkaloid concentration in sucrose density-gradient fraction ([1]; fraction 4): 0.064 mM
- Alkaloid concentration in sucrose density-gradient fraction ([1]; fraction 5): 0.070 mM
- Alkaloid concentration in sucrose density-gradient fraction ([1]; fraction 6): 0.049 mM
- Alkaloid concentration in sucrose density-gradient fraction ([1]; fraction 7): 0.038 mM
- Alkaloid concentration in sucrose density-gradient fraction ([1]; fraction 8): 0.035 mM
- Alkaloid concentration in sucrose density-gradient fraction ([1]; fraction 9): 0.028 mM
- Alkaloid concentration in sucrose density-gradient fraction ([1]; fraction 10): 0.028 mM
- Alkaloid concentration in sucrose density-gradient fraction ([1]; fraction 11): 0.030 mM
- Alkaloid concentration in sucrose density-gradient fraction ([1]; fraction 12): 0.035 mM
- Alkaloid concentration in sucrose density-gradient fraction ([1]; fraction 13): 0.033 mM
- Alkaloid concentration in sucrose density-gradient fraction ([1]; fraction 14): 0.047 mM
- Alkaloid concentration in sucrose density-gradient fraction ([1]; fraction 15): 0.080 mM
- Alkaloid concentration in sucrose density-gradient fraction ([1]; fraction 16): 0.105 mM
- Alkaloid concentration in sucrose density-gradient fraction ([1]; fraction 17): 0.123 mM
- Alkaloid concentration in sucrose density-gradient fraction ([1]; fraction 18): 0.103 mM
- Alkaloid concentration in sucrose density-gradient fraction ([1]; fraction 19): 0.080 mM
- Alkaloid concentration in sucrose density-gradient fraction ([1]; fraction 20): 0.067 mM
- Alkaloid concentration in sucrose density-gradient fraction ([1]; fraction 21): 0.035 mM
- Alkaloid concentration in sucrose density-gradient fraction ([1]; fraction 22): 0.066 mM
